# Reference: the supplement of paper PMC8728848
# The list shows a part of the results.
# Columns and labels:
# Experiment in all cases: glycan array binding signal (z-score within array); higher = stronger binding
# Settings in all cases: glycan notation: IUPAC condensed, linker removed
# [1] = target: Man(a1-3)[Man(a1-6)]Man(a1-6)[Man(a1-3)]Man
# Procedure, shortened: (§1)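 Glycan array data were curated from 3228 arrays in the Consortium for Functional Glycomics database and kept only where the protein sequence was available. Glycan names were converted to IUPAC-condensed notation, and columns mapping to the same glycan were averaged. The binding signal is a within-array Z-score, averaged across arrays of the same protein sequence at different concentrations or buffers and across linkers. Negative Z-scores can be read as non-binding.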
# [2] = target: Man(a1-3)[Man(a1-6)]Man(a1-6)[Man(a1-3)]Man(b1-4)GlcNAc(b1-4)GlcNAc
# Procedure, shortened: as §1
# [3] = target: Man(a1-3)[Man(a1-6)]Man(b1-4)GlcNAc(b1-4)GlcNAc
# Procedure, shortened: as §1
# [4] = target: Man(a1-3)[Man(a1-6)]Man(b1-4)GlcNAc(b1-4)[Fuc(a1-6)]GlcNAc
# Procedure, shortened: as §1
# Man(a1-6)Man = target: Man(a1-6)Man
# Procedure, shortened: as §1
# Man(b1-4)GlcNAc = target: Man(b1-4)GlcNAc
# Procedure, shortened: as §1
# MurNAc(b1-4)GlcNAc = target: MurNAc(b1-4)GlcNAc
# Procedure, shortened: as §1
# Neu5Ac(a2-3)Gal = target: Neu5Ac(a2-3)Gal
# Procedure, shortened: as §1
# [5] = target: Neu5Ac(a2-3)Gal(b1-3)GalNAc
# Procedure, shortened: as §1
# [6] = target: Neu5Ac(a2-3)Gal(b1-3)GalNAc(b1-3)Gal(a1-4)Gal(b1-4)Glc
# Procedure, shortened: as §1
# [7] = target: Neu5Ac(a2-3)Gal(b1-3)GalNAc(b1-4)[Neu5Ac(a2-3)]Gal(b1-4)Glc
# Procedure, shortened: as §1
# [8] = target: Neu5Ac(a2-3)Gal(b1-3)GalNAc(b1-4)[Neu5Ac(a2-8)Neu5Ac(a2-3)]Gal(b1-4)Glc
# Procedure, shortened: as §1
# [9] = target: Neu5Ac(a2-3)Gal(b1-3)GalNAc6S
# Procedure, shortened: as §1
# [10] = target: Neu5Ac(a2-3)Gal(b1-3)GlcNAc
# Procedure, shortened: as §1
# [11] = target: Neu5Ac(a2-3)Gal(b1-3)GlcNAc(b1-2)Man
# Procedure, shortened: as §1
# [12] = target: Neu5Ac(a2-3)Gal(b1-3)GlcNAc(b1-2)Man(a1-3)[GlcNAc(b1-4)][Neu5Ac(a2-3)Gal(b1-3)GlcNAc(b1-2)Man(a1-6)]Man(b1-4)GlcNAc(b1-4)GlcNAc
# Procedure, shortened: as §1
# [13] = target: Neu5Ac(a2-3)Gal(b1-3)GlcNAc(b1-2)Man(a1-3)[Neu5Ac(a2-3)Gal(b1-3)GlcNAc(b1-2)Man(a1-6)]Man(b1-4)GlcNAc(b1-4)GlcNAc
# Procedure, shortened: as §1
# [14] = target: Neu5Ac(a2-3)Gal(b1-3)GlcNAc(b1-3)Gal(b1-3)GlcNAc
# Procedure, shortened: as §1
# [15] = target: Neu5Ac(a2-3)Gal(b1-3)GlcNAc(b1-3)Gal(b1-4)GlcNAc
# Procedure, shortened: as §1
# [16] = target: Neu5Ac(a2-3)Gal(b1-3)GlcNAc(b1-3)GalNAc
# Procedure, shortened: as §1
# [17] = target: Neu5Ac(a2-3)Gal(b1-3)GlcNAc(b1-4)Gal(b1-4)Glc
# Procedure, shortened: as §1
# [18] = target: Neu5Ac(a2-3)Gal(b1-3)GlcNAc(b1-6)GalNAc
# Procedure, shortened: as §1
# [19] = target: Neu5Ac(a2-3)Gal(b1-3)GlcNAc6S
# Procedure, shortened: as §1
# [20] = target: Neu5Ac(a2-3)Gal(b1-3)[Fuc(a1-4)]GlcNAc
# Procedure, shortened: as §1
# [21] = target: Neu5Ac(a2-3)Gal(b1-3)[Fuc(a1-4)]GlcNAc(b1-3)Gal(b1-3)[Fuc(a1-4)]GlcNAc
# Procedure, shortened: as §1
# [22] = target: Neu5Ac(a2-3)Gal(b1-3)[Fuc(a1-4)]GlcNAc(b1-3)Gal(b1-4)[Fuc(a1-3)]GlcNAc
# Procedure, shortened: as §1
# [23] = target: Neu5Ac(a2-3)Gal(b1-3)[GlcNAc(b1-6)]GalNAc
# Procedure, shortened: as §1
# [24] = target: Neu5Ac(a2-3)Gal(b1-3)[Neu5Ac(a2-6)]GalNAc
# Procedure, shortened: as §1
# [25] = target: Neu5Ac(a2-3)Gal(b1-3)[Neu5Ac(a2-6)]GlcNAc(b1-3)[Fuc(a1-3)[Gal(b1-4)]GlcNAc(b1-6)]Gal(b1-4)Glc
# Procedure, shortened: as §1
# [26] = target: Neu5Ac(a2-3)Gal(b1-3)]Neu5Ac(a2-3)Gal(b1-4)]GlcNAc
# Procedure, shortened: as §1
# Neu5Ac(a2-3)Gal(b1-4)Glc = target: Neu5Ac(a2-3)Gal(b1-4)Glc
# Procedure, shortened: as §1
# [27] = target: Neu5Ac(a2-3)Gal(b1-4)GlcNAc
# Procedure, shortened: as §1
# [28] = target: Neu5Ac(a2-3)Gal(b1-4)GlcNAc(b1-2)Man
# Procedure, shortened: as §1
# [29] = target: Neu5Ac(a2-3)Gal(b1-4)GlcNAc(b1-2)Man(a1-3)[GlcNAc(b1-4)][Neu5Ac(a2-3)Gal(b1-4)GlcNAc(b1-2)Man(a1-6)]Man(b1-4)GlcNAc(b1-4)GlcNAc
# Procedure, shortened: as §1
# [30] = target: Neu5Ac(a2-3)Gal(b1-4)GlcNAc(b1-2)Man(a1-3)[Neu5Ac(a2-3)Gal(b1-4)GlcNAc(b1-2)Man(a1-6)]Man(b1-4)GlcNAc(b1-4)GlcNAc
# Procedure, shortened: as §1
# [31] = target: Neu5Ac(a2-3)Gal(b1-4)GlcNAc(b1-2)Man(a1-3)[Neu5Ac(a2-3)Gal(b1-4)GlcNAc(b1-2)Man(a1-6)]Man(b1-4)GlcNAc(b1-4)[Fuc(a1-6)]GlcNAc
# Procedure, shortened: as §1
# [32] = target: Neu5Ac(a2-3)Gal(b1-4)GlcNAc(b1-2)Man(a1-3)[Neu5Ac(a2-6)Gal(b1-4)GlcNAc(b1-2)Man(a1-6)]Man(b1-4)GlcNAc(b1-4)GlcNAc
# Procedure, shortened: as §1
# [33] = target: Neu5Ac(a2-3)Gal(b1-4)GlcNAc(b1-2)[Neu5Ac(a2-3)Gal(b1-4)GlcNAc(b1-4)]Man(a1-3)[GlcNAc(b1-4)][Neu5Ac(a2-3)Gal(b1-4)GlcNAc(b1-2)[Neu5Ac(a2-3)Gal(b1-4)GlcNAc(b1-6)]Man(a1-6)]Man(b1-4)GlcNAc(b1-4)GlcNAc
# Procedure, shortened: as §1
binder,measurement,setting,value
"SfaEH (Escherichia coli), Q1RDG5 (protein) LLCRNNQTGQVFNSGDTSFRVNVSPVVQYDKSISVLDLSQLVSCQNEDSTGQNYDYLKILKGSGFSPALDTKTYGRLDFTSRPTGYARQLPLQFDLQVTEAFYQYGVWKPFPAKLYLYPAPGVFGKVINNGDLLATLYVNKFSTKGQEAGERNFTWRFYATNDVYIQTGTCRVSSNNVKVDLPSYPGGPVTVPLTVRCDQTQSVSYTLSGPVTGSGNTVFANTAASGSGGVGIQLSDNVGPVPAGQPRSLGQVGSSPVSLGLKASYALTGQASPTPGAVQSVINVTFSYN",glycan array binding signal (z-score),[1],-0.538
same,glycan array binding signal (z-score),[2],-0.969
same,glycan array binding signal (z-score),[3],0.076
same,glycan array binding signal (z-score),[4],-0.865
same,glycan array binding signal (z-score),Man(a1-6)Man,-0.795
same,glycan array binding signal (z-score),Man(b1-4)GlcNAc,-0.49
same,glycan array binding signal (z-score),MurNAc(b1-4)GlcNAc,-0.594
same,glycan array binding signal (z-score),Neu5Ac(a2-3)Gal,-0.848
same,glycan array binding signal (z-score),[5],-0.661
same,glycan array binding signal (z-score),[6],0.281
same,glycan array binding signal (z-score),[7],-0.481
same,glycan array binding signal (z-score),[8],-0.396
same,glycan array binding signal (z-score),[9],-0.09
same,glycan array binding signal (z-score),[10],0.633
same,glycan array binding signal (z-score),[11],0.627
same,glycan array binding signal (z-score),[12],-1.23
same,glycan array binding signal (z-score),[13],-0.547
same,glycan array binding signal (z-score),[14],-0.355
same,glycan array binding signal (z-score),[15],1.06
same,glycan array binding signal (z-score),[16],0.084
same,glycan array binding signal (z-score),[17],-0.421
same,glycan array binding signal (z-score),[18],-0.614
same,glycan array binding signal (z-score),[19],-1.08
same,glycan array binding signal (z-score),[20],0.837
same,glycan array binding signal (z-score),[21],1.59
same,glycan array binding signal (z-score),[22],0.156
same,glycan array binding signal (z-score),[23],1.67
same,glycan array binding signal (z-score),[24],-0.374
same,glycan array binding signal (z-score),[25],0.244
same,glycan array binding signal (z-score),[26],0.602
same,glycan array binding signal (z-score),Neu5Ac(a2-3)Gal(b1-4)Glc,0.596
same,glycan array binding signal (z-score),[27],0.437
same,glycan array binding signal (z-score),[28],0.031
same,glycan array binding signal (z-score),[29],-0.131
same,glycan array binding signal (z-score),[30],-0.17
same,glycan array binding signal (z-score),[31],0.008
same,glycan array binding signal (z-score),[32],0.07
same,glycan array binding signal (z-score),[33],-0.316

# Two successive entries already listed:
binder,measurement,setting,value
"SfaEH (Escherichia coli), Q1RDG5 (protein) LLCRNNQTGQVFNSGDTSFRVNVSPVVQYDKSISVLDLSQLVSCQNEDSTGQNYDYLKILKGSGFSPALDTKTYGRLDFTSRPTGYARQLPLQFDLQVTEAFYQYGVWKPFPAKLYLYPAPGVFGKVINNGDLLATLYVNKFSTKGQEAGERNFTWRFYATNDVYIQTGTCRVSSNNVKVDLPSYPGGPVTVPLTVRCDQTQSVSYTLSGPVTGSGNTVFANTAASGSGGVGIQLSDNVGPVPAGQPRSLGQVGSSPVSLGLKASYALTGQASPTPGAVQSVINVTFSYN",glycan array binding signal (z-score),Man(a1-6)Man,-0.795
same,glycan array binding signal (z-score),Man(b1-4)GlcNAc,-0.49
